{"sequences": {"note": "Protein sequences, listed by entry. Tags and fused reporters are not part of them. Lines headed by an entry give the natural chain unless they say otherwise; changes in a name come on top.", "UniProt Q03431": "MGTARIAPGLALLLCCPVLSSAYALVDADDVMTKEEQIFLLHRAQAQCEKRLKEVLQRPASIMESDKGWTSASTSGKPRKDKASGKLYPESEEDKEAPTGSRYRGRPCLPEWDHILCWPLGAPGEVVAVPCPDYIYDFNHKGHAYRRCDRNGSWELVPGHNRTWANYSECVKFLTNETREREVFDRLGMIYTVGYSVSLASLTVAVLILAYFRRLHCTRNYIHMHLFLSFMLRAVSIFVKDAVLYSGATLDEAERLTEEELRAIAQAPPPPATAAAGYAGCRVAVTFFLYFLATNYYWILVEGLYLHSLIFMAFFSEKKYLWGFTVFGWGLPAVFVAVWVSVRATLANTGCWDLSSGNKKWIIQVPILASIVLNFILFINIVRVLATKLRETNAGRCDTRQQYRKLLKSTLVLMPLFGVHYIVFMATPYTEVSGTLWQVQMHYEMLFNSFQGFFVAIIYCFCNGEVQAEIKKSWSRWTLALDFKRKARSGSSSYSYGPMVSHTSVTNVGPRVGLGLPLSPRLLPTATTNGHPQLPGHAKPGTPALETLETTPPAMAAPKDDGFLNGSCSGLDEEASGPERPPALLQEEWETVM"}, "source": "PubChem BioAssay AID743266", "about": "(National Center for Advancing Translational Sciences (NCATS), 2014)", "note": "Screen size: about 410,000 compounds; about 310 (0.076%) were called active. This list was built around the results that the source calls inconclusive (neither active nor inactive); the mix of calls is not that of the screen. Calls come from the whole dose curve; as a rule, active = well fitted activation curve with a large enough effect; inconclusive = small, poorly fitted or top-dose-only effect, or another doubt; inactive = no such curve, though single readings can be large or run the other way. Potencies of inconclusive entries are doubtful fits and often do not repeat. Potency is the fitted concentration of half-maximal effect."}
{"biological_target": "Parathyroid hormone/parathyroid hormone-related peptide receptor (Homo sapiens) (UniProt Q03431)", "experiment": "qHTS for PTHR1 Agonists: Primary Screen; note: nearly all actives have a fitted effect of over 55% in size", "conditions": "HEK293 GP2 PTHR1 cells, GloSensor cAMP luminescence, 1 h; activation: at 115 µM (top of the series) unless noted; series mostly up to 115 µM", "outline": "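HEK-293-derived GP2 cells expressing PTHR1 and a GloSensor cAMP reporter, 3,000/well, plated overnight, given luciferin plus IBMX (each 0.5 mM as added) for 1 h at 37 °C, then compound for 1 h at 37 °C. Luminescence was read after 15 min at room temperature.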"}
{"smiles": "CCOC(=O)c1ccc(NC(=S)Nc2ccc(Cl)cn2)cc1", "Potency": "inconclusive: 79.4 µM [activator, partial curve, poor fit]"}
{"smiles": "O=C(c1cc(COc2ccc(F)cc2F)on1)N1C[C@H]2CC[C@H]1C2", "activation": "inconclusive: -48.7% [activator]"}
{"smiles": "COC(=O)c1sccc1S(=O)(=O)N(CC(=O)Nc1ccccc1F)c1ccccc1", "Potency": "inactive"}
{"smiles": "O=C(C1CCN(S(=O)(=O)c2ccccc2F)CC1)N1CCCC1", "Potency": "inactive"}
{"smiles": "Cc1cccc(N(C(=O)CCC(=O)Nc2cc(C)on2)C(C(=O)NC2CCCC2)c2ccc(C)o2)c1", "note": "(stereo not given)", "activation": "inconclusive: 51.9% [activator]"}
{"smiles": "CN(C)c1ccc(CN2CCCCCC2)cc1", "Potency": "inconclusive: 25.1 µM [activator, single point]"}
{"smiles": "Cc1cccc(C)c1NC(=O)C(c1ccccc1)n1c(=O)c(-c2ccccc2)nc2ccccc21", "note": "(stereo not given)", "Potency": "inactive"}
{"smiles": "CC1CCCN(CC(=O)Nc2ccc(S(=O)(=O)NC3CCCCC3)cc2)C1", "note": "(stereo not given)", "Potency": "inconclusive: 15.8 µM [activator, partial curve, poor fit]"}
{"smiles": "O=C(CN1C(=O)c2ccccc2C1=O)Nc1ccccc1C(=O)NC1CCCCCC1", "Potency": "inconclusive: 11.2 µM [activator, partial curve, poor fit]"}
{"smiles": "CCS(=O)(=O)c1ncc(Cl)c(C(=O)Nc2ccccc2)n1", "Potency": "inactive"}
{"smiles": "Cc1ccc(Cl)cc1N1CCN(S(=O)(=O)c2cc(Br)cc3c2N(C(=O)C2CC2)CC3)CC1", "Potency": "inconclusive: 15.8 µM [activator, partial curve]"}
{"smiles": "COCc1cc(C)nc(N2CCNCC2)c1C#N", "Potency": "inactive"}
{"smiles": "NC(=S)N=Nc1c(O)n(CC(=O)Nc2ccccc2)c2ccccc12", "Potency": "inactive"}
{"smiles": "Cc1cccc(NC(=O)CC2CCC2)c1", "Potency": "inconclusive: 316 µM [activator, partial curve, poor fit]"}
{"smiles": "CCOC(=O)N1CCN(C(=O)CN(C2CCCCC2)S(=O)(=O)c2ccc(Cl)cc2)CC1", "Potency": "inconclusive: 39.8 µM [activator, single point]"}
{"smiles": "CC(=O)Nc1ccc(/C=C(\\C#N)C(=O)NCc2ccccc2)cc1", "Potency": "inconclusive: 35.5 µM [activator, partial curve, poor fit]"}
{"smiles": "CCOC(=O)c1[nH]c2cc3c(cc2c1NC(=O)CN1CC(C)CC(C)C1)OCO3", "note": "(stereo not given)", "Potency": "inconclusive: 112 µM [activator, single point]"}
{"smiles": "Cc1ccnc2c1ccc1c(C)ccnc12", "Potency": "inconclusive: 112 µM [activator, partial curve, poor fit]"}
{"smiles": "CC1SCCN1S(=O)(=O)c1ccc2ccccc2c1", "note": "(stereo not given)", "Potency": "inactive"}
{"smiles": "C[C@H](CO)N1C[C@H](C)[C@@H](CN(C)C(=O)NC2CCCCC2)Oc2ncc(Br)cc2C1=O", "Potency": "inactive"}
